Source: PMC5778034
Results are given in words; binding and its absence hold for the method and conditions named. In cells and extracts the contact can be indirect. Some binding calls cover weakened binding; strength is not graded here.

By UniProt entry, the sequences of proteins in these tests, tags left out.
UniProt P31749: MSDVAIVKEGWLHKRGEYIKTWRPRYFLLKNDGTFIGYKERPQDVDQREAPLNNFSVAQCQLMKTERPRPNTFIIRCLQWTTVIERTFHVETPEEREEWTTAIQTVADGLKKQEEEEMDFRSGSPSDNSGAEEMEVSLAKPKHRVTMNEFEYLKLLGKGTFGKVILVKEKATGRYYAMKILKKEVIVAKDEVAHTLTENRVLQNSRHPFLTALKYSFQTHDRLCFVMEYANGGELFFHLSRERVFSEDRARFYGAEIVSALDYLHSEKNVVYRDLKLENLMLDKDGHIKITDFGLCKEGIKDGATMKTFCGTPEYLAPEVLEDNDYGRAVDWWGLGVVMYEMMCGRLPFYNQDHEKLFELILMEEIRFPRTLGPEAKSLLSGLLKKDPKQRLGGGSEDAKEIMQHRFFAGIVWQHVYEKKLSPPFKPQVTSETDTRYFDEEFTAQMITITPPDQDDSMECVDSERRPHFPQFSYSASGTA

Biological target: Akt1 (PKBα) (human) (UniProt P31749)
Test: co-IP; asynchronous Akt1-expressing HEK293 cells lysed in IP buffer; affinity purification by the SH tag of Akt1; eluates probed by western blot with antibodies against the partners

B1: API5 (protein, UniProt Q9BZZ5 1-524)
chain: MPTVEELYRNYGILADATEQVGQHKDAYQVILDGVKGGTKEKRLAAQFIPKFFKHFPELADSAINAQLDLCEDEDVSIRRQAIKELPQFATGENLPRVADILTQLLQTDDSAEFNLVNNALLSIFKMDAKGTLGGLFSQILQGEDIVRERAIKFLSTKLKTLPDEVLTKEVEELILTESKKVLEDVTGEEFVLFMKILSGLKSLQTVSGRQQLVELVAEQADLEQTFNPSDPDCVDRLLQCTRQAVPLFSKNVHSTRFVTYFCEQVLPNLGTLTTPVEGLDIQLEVLKLLAEMSSFCGDMEKLETNLRKLFDKLLEYMPLPPEEAENGENAGNEEPKLQFSYVECLLYSFHQLGRKLPDFLTAKLNAEKLKDFKIRLQYFARGLQVYIRQLRLALQGKTGEALKTEENKIKVVALKITNNINVLIKDLFHIPPSYKSTVTLSWKPVQKVEIGQKRASEDTTSGSPPKKSSAGPKRDARQIYNPPSGKYSSNLGNFNYEQRGAFRGSRGGRGWGTRGNRSRGRLY
binding: binds
